Data taken from the supplement of paper PMC10849652.
The other results are listed elsewhere or left out. Residues, ends and D or L forms follow the SMILES beside them. *: point of attachment. Cbz = O=C(OCc1ccccc1)*

Sequences of proteins named here, by UniProt entry; tags and fusion partners are left off. A change or cut given only in a name is not applied to a line headed by its entry.
UniProt O15234, whole entry, looked up: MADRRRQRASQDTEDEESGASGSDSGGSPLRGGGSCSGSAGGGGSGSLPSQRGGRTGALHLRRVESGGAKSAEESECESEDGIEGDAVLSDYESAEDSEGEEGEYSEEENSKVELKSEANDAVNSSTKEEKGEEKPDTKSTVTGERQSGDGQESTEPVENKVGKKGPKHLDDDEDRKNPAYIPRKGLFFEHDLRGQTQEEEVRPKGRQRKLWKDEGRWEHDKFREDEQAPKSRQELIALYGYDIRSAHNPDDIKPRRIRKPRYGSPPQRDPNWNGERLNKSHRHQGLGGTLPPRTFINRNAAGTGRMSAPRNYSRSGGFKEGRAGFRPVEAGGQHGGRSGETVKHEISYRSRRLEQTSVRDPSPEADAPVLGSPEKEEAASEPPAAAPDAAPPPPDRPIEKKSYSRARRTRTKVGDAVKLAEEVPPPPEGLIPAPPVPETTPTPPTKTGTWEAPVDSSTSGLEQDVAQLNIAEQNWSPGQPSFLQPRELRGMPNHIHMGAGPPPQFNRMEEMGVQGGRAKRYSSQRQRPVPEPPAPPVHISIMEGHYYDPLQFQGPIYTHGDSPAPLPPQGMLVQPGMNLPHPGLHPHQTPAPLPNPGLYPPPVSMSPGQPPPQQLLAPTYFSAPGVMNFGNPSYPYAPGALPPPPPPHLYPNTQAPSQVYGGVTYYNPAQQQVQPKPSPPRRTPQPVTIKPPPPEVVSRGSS
UniProt P35520: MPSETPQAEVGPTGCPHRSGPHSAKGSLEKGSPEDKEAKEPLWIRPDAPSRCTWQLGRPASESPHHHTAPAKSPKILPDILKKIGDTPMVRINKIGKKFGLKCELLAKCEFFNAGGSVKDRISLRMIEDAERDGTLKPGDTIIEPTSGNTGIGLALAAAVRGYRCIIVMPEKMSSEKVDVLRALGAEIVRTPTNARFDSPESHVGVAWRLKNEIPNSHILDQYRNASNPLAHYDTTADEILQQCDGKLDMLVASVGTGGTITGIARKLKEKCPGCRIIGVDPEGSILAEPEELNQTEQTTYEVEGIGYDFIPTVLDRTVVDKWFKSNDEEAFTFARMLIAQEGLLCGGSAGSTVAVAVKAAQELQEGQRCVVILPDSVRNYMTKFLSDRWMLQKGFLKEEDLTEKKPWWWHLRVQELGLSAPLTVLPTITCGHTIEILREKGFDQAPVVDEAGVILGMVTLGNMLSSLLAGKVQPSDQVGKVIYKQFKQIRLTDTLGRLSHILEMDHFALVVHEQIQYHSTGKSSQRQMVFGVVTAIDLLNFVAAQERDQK
UniProt Q9HA77: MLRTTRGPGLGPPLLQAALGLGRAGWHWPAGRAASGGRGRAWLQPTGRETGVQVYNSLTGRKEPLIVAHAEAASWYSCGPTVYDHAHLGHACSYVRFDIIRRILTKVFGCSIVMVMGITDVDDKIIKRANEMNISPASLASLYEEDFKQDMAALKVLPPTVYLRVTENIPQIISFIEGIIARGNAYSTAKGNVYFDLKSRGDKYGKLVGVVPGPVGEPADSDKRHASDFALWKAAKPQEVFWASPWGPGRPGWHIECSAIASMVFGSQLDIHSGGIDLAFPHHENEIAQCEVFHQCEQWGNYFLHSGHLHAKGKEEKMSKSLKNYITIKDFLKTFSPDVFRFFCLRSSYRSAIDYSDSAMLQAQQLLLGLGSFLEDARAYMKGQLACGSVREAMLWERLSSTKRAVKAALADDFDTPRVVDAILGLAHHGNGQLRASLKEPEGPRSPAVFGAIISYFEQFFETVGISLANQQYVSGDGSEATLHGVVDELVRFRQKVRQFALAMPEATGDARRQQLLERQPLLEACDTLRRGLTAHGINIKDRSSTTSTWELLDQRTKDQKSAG
UniProt P42574: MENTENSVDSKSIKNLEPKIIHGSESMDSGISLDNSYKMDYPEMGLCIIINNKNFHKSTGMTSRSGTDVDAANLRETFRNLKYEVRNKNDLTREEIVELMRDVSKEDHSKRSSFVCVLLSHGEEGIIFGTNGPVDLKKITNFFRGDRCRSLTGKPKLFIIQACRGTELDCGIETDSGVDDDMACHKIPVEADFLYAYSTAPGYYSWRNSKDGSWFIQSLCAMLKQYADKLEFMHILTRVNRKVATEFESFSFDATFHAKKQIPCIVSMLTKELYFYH
UniProt Q8WUD4: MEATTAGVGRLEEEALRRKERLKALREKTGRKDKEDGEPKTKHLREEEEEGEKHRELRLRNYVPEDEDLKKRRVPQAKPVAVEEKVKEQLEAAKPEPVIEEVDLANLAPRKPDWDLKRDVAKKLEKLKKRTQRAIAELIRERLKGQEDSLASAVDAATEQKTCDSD
UniProt Q9GZT6: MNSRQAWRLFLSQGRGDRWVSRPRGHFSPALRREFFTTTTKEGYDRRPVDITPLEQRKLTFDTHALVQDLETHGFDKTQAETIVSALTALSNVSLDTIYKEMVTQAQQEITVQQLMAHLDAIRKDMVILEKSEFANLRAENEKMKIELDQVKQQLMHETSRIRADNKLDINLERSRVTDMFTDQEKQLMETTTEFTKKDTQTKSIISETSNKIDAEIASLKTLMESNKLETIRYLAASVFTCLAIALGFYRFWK
UniProt P19397: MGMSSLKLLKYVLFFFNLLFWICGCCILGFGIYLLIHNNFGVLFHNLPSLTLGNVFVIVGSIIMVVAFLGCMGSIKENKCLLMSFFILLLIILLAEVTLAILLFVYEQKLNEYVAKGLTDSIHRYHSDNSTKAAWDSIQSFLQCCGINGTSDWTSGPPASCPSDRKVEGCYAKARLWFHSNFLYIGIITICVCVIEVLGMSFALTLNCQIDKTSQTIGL
UniProt Q86WR0: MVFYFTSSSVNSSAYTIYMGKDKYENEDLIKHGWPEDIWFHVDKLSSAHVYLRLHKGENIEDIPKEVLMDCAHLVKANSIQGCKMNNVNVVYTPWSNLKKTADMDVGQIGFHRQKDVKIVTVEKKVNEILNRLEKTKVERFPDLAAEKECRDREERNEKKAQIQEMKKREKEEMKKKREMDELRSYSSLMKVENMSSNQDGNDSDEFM
UniProt Q6P1N0: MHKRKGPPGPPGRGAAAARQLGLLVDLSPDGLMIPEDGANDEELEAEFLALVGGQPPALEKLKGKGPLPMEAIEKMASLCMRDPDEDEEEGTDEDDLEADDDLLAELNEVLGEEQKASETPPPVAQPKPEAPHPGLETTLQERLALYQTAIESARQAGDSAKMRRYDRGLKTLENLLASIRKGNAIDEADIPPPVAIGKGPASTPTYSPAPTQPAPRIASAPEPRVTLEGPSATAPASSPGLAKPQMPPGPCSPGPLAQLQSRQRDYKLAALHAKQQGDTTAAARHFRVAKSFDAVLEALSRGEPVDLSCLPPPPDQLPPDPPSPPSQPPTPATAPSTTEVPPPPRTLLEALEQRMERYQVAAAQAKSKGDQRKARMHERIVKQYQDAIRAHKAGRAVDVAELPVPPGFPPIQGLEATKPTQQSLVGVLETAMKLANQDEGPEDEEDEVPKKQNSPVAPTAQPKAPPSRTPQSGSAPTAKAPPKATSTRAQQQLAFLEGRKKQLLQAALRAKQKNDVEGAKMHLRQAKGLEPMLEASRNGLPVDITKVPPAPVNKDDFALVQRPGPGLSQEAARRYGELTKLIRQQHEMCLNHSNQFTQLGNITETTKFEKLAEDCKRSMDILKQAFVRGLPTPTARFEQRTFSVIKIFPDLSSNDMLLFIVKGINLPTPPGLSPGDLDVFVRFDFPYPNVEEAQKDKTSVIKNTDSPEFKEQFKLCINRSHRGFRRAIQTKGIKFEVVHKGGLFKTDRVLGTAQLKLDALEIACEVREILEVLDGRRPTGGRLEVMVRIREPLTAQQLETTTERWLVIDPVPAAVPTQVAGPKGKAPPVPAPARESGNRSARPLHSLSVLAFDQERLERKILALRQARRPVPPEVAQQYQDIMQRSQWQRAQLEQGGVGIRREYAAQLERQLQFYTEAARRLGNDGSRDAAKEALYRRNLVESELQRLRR
UniProt P19256, whole entry, looked up: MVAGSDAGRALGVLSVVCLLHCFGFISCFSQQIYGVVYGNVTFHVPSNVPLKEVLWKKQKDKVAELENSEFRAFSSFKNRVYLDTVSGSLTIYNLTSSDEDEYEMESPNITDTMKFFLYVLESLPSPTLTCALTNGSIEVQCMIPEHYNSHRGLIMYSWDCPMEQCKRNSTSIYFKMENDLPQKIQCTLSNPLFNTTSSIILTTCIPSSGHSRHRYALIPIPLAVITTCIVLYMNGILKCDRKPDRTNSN
UniProt Q13951, whole entry, looked up: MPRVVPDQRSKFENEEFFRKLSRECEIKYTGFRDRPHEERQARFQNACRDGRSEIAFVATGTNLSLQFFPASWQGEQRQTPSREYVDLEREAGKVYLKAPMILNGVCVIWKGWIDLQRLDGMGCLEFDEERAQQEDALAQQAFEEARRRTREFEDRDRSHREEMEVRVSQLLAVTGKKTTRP
UniProt P40227, whole entry, looked up: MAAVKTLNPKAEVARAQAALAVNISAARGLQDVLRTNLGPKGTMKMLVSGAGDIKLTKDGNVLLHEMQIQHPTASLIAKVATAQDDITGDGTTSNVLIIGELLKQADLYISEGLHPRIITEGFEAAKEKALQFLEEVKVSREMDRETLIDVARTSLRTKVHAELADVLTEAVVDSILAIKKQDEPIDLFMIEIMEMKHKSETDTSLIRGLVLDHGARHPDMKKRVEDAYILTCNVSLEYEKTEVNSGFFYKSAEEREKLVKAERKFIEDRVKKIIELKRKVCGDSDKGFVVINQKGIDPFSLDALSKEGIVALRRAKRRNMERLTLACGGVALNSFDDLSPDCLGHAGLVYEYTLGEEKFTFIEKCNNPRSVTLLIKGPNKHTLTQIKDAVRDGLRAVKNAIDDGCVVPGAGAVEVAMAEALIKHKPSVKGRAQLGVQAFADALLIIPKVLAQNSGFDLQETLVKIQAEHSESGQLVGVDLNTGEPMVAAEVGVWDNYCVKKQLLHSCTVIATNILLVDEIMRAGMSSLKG
UniProt Q7Z6B0: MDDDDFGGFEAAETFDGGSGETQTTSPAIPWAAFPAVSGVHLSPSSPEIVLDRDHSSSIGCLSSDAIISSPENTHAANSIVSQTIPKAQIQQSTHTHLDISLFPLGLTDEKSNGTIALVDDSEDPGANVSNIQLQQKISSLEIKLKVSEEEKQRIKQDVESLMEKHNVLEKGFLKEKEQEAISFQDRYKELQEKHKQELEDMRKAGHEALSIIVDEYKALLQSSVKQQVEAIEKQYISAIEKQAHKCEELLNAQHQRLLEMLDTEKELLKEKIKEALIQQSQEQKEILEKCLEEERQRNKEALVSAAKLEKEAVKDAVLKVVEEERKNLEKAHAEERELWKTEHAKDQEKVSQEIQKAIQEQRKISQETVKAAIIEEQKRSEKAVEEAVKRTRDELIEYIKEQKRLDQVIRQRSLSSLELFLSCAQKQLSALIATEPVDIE
UniProt O75081: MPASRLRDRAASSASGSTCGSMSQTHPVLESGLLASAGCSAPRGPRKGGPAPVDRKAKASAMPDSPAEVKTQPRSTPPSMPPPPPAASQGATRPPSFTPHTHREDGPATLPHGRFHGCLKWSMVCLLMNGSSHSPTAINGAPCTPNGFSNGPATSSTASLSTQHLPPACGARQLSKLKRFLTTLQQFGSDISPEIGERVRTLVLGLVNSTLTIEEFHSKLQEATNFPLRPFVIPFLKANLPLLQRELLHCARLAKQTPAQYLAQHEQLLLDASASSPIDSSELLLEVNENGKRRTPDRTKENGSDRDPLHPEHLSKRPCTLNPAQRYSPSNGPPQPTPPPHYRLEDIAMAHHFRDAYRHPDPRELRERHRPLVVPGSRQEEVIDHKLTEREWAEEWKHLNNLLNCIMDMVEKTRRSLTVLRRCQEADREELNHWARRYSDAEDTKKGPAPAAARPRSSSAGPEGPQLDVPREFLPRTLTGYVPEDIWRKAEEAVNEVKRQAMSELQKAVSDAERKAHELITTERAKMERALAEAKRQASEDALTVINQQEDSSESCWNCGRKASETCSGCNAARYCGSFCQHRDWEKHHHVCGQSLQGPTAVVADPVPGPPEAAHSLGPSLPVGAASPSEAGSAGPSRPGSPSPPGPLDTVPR
UniProt Q96F63: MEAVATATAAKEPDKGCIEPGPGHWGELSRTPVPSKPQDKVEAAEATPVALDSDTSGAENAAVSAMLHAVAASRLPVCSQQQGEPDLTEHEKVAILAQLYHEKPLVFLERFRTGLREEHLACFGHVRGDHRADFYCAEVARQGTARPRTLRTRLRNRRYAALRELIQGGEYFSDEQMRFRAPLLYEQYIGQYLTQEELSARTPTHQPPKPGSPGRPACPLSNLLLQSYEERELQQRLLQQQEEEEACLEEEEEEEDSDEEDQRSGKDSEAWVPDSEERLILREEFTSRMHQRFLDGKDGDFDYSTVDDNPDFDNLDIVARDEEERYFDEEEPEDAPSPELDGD

Legend:
Test in all cases: log2 fold change, soluble protein after heating vs DMSO (PISA); higher = thermal stabilisation; K562 cells, 10 uM, 30 min; active = over 0.2 and 3.5 SD of the protein, either way, in both replicates (recomputed)
[1] = compound: C1COCCN1CCN2C3=CC=CC=C3N=C2NC(=O)C4=CC(=CC=C4)[N+](=O)[O-] [IRAK-1-4 Inhibitor I]
Outline: (§1)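 K562 cells at 2×10^6 cells/mL were treated with 10 μM compound for 30 min. Aliquots were heated for 3 min across 48°C-58°C, pooled, and extracted in PBS with 0.5% NP-40 at 4°C; soluble protein was the supernatant after 21,000xg for 90 min. Soluble protein was quantified by TMTpro 16plex LC-MS/MS with channel sums equalised, and reported as log2 fold change in thermal stability against DMSO controls, with values from duplicates.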

[2] = compound: C=CC(=O)N1CCC[C@@H](n2nc(-c3ccc(Oc4ccccc4)cc3)c3c(N)ncnc32)C1 [ibrutinib]
Outline: as §1

[3] = compound: CC(=O)c1cnc2ccc(-c3cc(Cl)c(O)c(Cl)c3)nc2c1N[C@H]1CC[C@H](CN(C)C)CC1
Outline: as §1

[4] = compound: CC(C)(C)Cn1c(N)nc2ccc(-c3[nH]c(C(C)(C)C)nc3-c3ccc(F)cc3)nc21 [ralimetinib]
Outline: as §1

[5] = compound: CC(C)(O)CC(=O)NCCn1ccc2ncnc(Nc3ccc(Oc4cccc(C(F)(F)F)c4)c(Cl)c3)c21
Outline: as §1

[6] = compound: CC(C)C1=C2N=C(C=C(N2N=C1)NCC3=CC=CC=C3)NCCCCCCN
Outline: as §1

[7] = compound: CC(C)C[C@@H](C=O)NC(=O)[C@H](CC(C)C)NC(=O)[C@H](CC(C)C)NC(=O)OCc1ccccc1
Outline: as §1

[8] = compound: CC(C)N(C[C@H]1O[C@@H](n2cnc3c(N)ncnc32)[C@H](O)[C@@H]1O)[C@H]1C[C@@H](CCc2nc3cc(C(C)(C)C)ccc3[nH]2)C1 [pinometostat]
Outline: as §1

[9] = compound: CC1=C(C2=C(C=C1)C(=O)C3=CC=CC=C3N2CCCN)C
Outline: as §1

[10] = compound: CC1=C(C=C(C=C1)NC(=O)C2=CC(=CC=C2)C(C)(C)C#N)NC3=CC4=C(C=C3)N=CN(C4=O)C
Outline: as §1

[11] = compound: CC1=C(C=C(C=C1)NC(=O)C2=CC(=CC=C2)N(C)C)NC(=O)C3=CC=C(C=C3)O
Outline: as §1

[12] = compound: CC1=CC=C(C=C1)SC2=C3C=C(SC3=CN=C2)C(=O)N
Outline: as §1

[13] = compound: CC1=NC(=CC=C1)C2=C(N=C(N2)C(C)(C)C)C3=CC4=NC=CN=C4C=C3
Outline: as §1

[14] = compound: CCCCN(Cc1ccc(C(=O)NO)cc1)C(=O)Nc1ccccc1 [Nexturastat A]
Outline: as §1

[15] = compound: CCCS(=O)(=O)Nc1ccc(F)c(C(=O)c2c[nH]c3ncc(-c4ccc(Cl)cc4)cc23)c1F [vemurafenib]
Outline: as §1

[16] = compound: CCCS(=O)(=O)Nc1ccc(F)c(C(=O)c2c[nH]c3ncc(Cl)cc23)c1F
Outline: as §1

[17] = compound: CCCc1cc(C)[nH]c(=O)c1CNC(=O)c1cc(-c2ccnc(N3CCN(C)CC3)c2)cc2c1cnn2C(C)C
Outline: as §1

[18] = compound: CCN(CC)Cc1ccc2cc(COC(=O)Nc3ccc(C(=O)NO)cc3)ccc2c1 [givinostat]
Outline: as §1

[19] = compound: CCN(CCCOc1ccc2c(Nc3cc(CC(=O)Nc4cccc(F)c4)[nH]n3)ncnc2c1)CCOP(=O)(O)O [barasertib]
Outline: as §1

[20] = compound: CC1=C(C(CC(=O)N1)C2=CC=C(C=C2)C(F)(F)F)C(=O)NC3=C(C=C4C(=C3)C=NN4)F
Outline: as §1

Measured: log2 fold change

CASC3 (UniProt O15234)
active: [3] 0.582
inactive: [1] -0.014 | [2] 0.1 | [4] 0.07 | [5] -0.023 | [6] 0.411 | [7] -0.036 | [8] -0.005 | [9] 0.206 | [10] 0.043 | [11] -0.003 | [12] 0.009 | [13] -0.027 | [14] -0.004 | [15] -0.156 | [16] -0.061 | [17] -0.065 | [18] -0.045 | [19] 0.043

CBS (UniProt P35520)
inactive: [1] 0.044 | [2] -0.007 | [3] 0.008 | [4] -0.01 | [5] 0.027 | [6] 0.036 | [7] -0.013 | [8] -0.048 | [9] 0.001 | [10] 0.031 | [11] -0.001 | [12] 0.004 | [13] 0.019 | [14] -0.08 | [15] -0.021 | [16] -0.004 | [17] -0.016 | [18] -0.135 | [19] 0.02

CARS2 (UniProt Q9HA77)
inactive: [1] -0.078 | [2] -0.004 | [3] 0.012 | [4] -0.026 | [5] 0.072 | [6] 0.06 | [7] -0.047 | [8] -0.006 | [20] 0.038 | [9] 0.039 | [10] -0.019 | [11] 0.003 | [12] -0.036 | [13] -0.016 | [14] -0.083 | [15] -0.043 | [16] -0.021 | [17] -0.006 | [18] -0.02 | [19] 0.028

CASP3 (UniProt P42574)
inactive: [1] 0.074 | [2] 0.008 | [3] 0 | [4] -0.022 | [5] 0.043 | [6] 0.048 | [7] 0.067 | [8] -0.076 | [9] 0.05 | [10] -0.049 | [11] 0.086 | [12] 0.009 | [13] 0.065 | [14] -0.025 | [15] -0.009 | [16] 0.022 | [17] 0.113 | [18] -0.029 | [19] -0.005

CCDC12 (UniProt Q8WUD4)
inactive: [1] 0.088 | [2] 0.037 | [3] 0.084 | [4] -0.114 | [5] 0.009 | [6] 0.168 | [7] 0.018 | [8] -0.004 | [20] 0.017 | [9] 0.009 | [10] 0.017 | [11] -0.001 | [12] 0.059 | [13] 0 | [14] 0.028 | [15] 0.027 | [16] 0.038 | [17] 0.022 | [18] -0.026 | [19] -0.02

CCDC158 (UniProt Q5M9N0)
inactive: [1] -0.114 | [2] 0.041 | [3] 0.029 | [4] -0.003 | [5] 0.246 | [6] 0.075 | [7] 0.057 | [8] -0.063 | [20] -0.068 | [10] 0.17 | [11] -0.001 | [12] -0.064 | [13] 0.154 | [14] 0.096 | [15] -0.079 | [16] 0.007 | [17] -0.096 | [18] 0.035 | [19] -0.037

CCDC90B (UniProt Q9GZT6)
inactive: [1] -0.059 | [2] -0.012 | [3] -0.022 | [4] -0.075 | [5] -0.017 | [6] 0.043 | [7] -0.036 | [8] -0.131 | [20] -0.018 | [9] 0.131 | [10] -0.006 | [11] 0.011 | [12] 0.007 | [13] 0.006 | [14] -0.01 | [15] 0.117 | [16] -0.011 | [17] -0.01 | [18] -0.022 | [19] 0.028

CD53 (UniProt P19397)
inactive: [1] 0.097 | [2] 0.033 | [3] -0.026 | [4] -0.24 | [5] -0.021 | [6] 0.229 | [7] 0.051 | [8] -0.014 | [9] 0.105 | [10] -0.062 | [11] -0.099 | [12] -0.13 | [13] -0.095 | [14] -0.006 | [15] -0.035 | [16] -0.182 | [17] -0.092 | [18] -0.006 | [19] -0.102

CCDC25 (UniProt Q86WR0)
inactive: [1] 0.05 | [2] -0.079 | [3] -0.026 | [4] 0.026 | [5] -0.187 | [6] -0.032 | [7] 0.002 | [8] -0.011 | [20] -0.031 | [9] 0.081 | [10] 0.027 | [11] -0.057 | [12] 0.075 | [13] 0.019 | [14] -0.026 | [15] -0.044 | [16] 0.052 | [17] -0.066 | [18] 0.134 | [19] 0.012

CC2D1A (UniProt Q6P1N0)
inactive: [1] -0.025 | [2] -0.001 | [3] -0.015 | [4] 0.051 | [5] -0.068 | [6] 0 | [7] 0.028 | [8] -0.007 | [20] 0.02 | [9] 0.194 | [10] 0.008 | [11] -0.005 | [12] 0.009 | [13] 0.061 | [14] 0.032 | [15] 0.071 | [16] 0.032 | [17] 0.11 | [18] 0.057 | [19] 0.025

CD58 (UniProt P19256)
inactive: [1] -0.039 | [2] -0.016 | [3] -0.039 | [4] -0.088 | [5] 0.037 | [6] 0.163 | [7] 0.052 | [8] 0.02 | [20] -0.061 | [9] 0.023 | [10] -0.015 | [11] 0 | [12] -0.014 | [13] -0.021 | [14] 0.014 | [15] -0.047 | [16] -0.023 | [17] 0.011 | [18] -0.031 | [19] -0.045

CBFB isoform 2 (UniProt Q13951)
inactive: [1] -0.018 | [2] -0.043 | [3] 0.058 | [4] -0.081 | [5] 0 | [6] -0.014 | [7] -0.039 | [8] 0.037 | [20] 0.023 | [9] -0.028 | [10] 0.017 | [11] -0.044 | [12] -0.028 | [13] 0.005 | [14] 0.095 | [15] 0.077 | [16] 0.013 | [17] 0.186 | [18] 0.058 | [19] 0.084

Retrieved one by one from the entries so far, 2 records:
CASC3 (UniProt O15234)
active: [3] 0.582
inactive: [1] -0.014 | [2] 0.1 | [4] 0.07 | [5] -0.023 | [6] 0.411 | [7] -0.036 | [8] -0.005 | [9] 0.206 | [10] 0.043 | [11] -0.003 | [12] 0.009 | [13] -0.027 | [14] -0.004 | [15] -0.156 | [16] -0.061 | [17] -0.065 | [18] -0.045 | [19] 0.043

CCDC158 (UniProt Q5M9N0)
inactive: [1] -0.114 | [2] 0.041 | [3] 0.029 | [4] -0.003 | [5] 0.246 | [6] 0.075 | [7] 0.057 | [8] -0.063 | [20] -0.068 | [10] 0.17 | [11] -0.001 | [12] -0.064 | [13] 0.154 | [14] 0.096 | [15] -0.079 | [16] 0.007 | [17] -0.096 | [18] 0.035 | [19] -0.037

Going on with the list:

CCT6A (UniProt P40227)
inactive: [1] 0.005 | [2] -0.003 | [3] 0.008 | [4] -0.003 | [5] -0.012 | [6] 0.016 | [7] -0.041 | [8] -0.055 | [20] 0.071 | [9] 0.02 | [10] 0.007 | [11] -0.001 | [12] 0 | [13] 0.022 | [14] -0.034 | [15] -0.023 | [16] -0.003 | [17] -0.018 | [18] -0.021 | [19] -0.002

CCDC91 (UniProt Q7Z6B0)
inactive: [1] -0.067 | [2] -0.014 | [3] 0.021 | [4] -0.009 | [5] -0.014 | [6] 0.058 | [7] 0.032 | [8] -0.033 | [20] -0.013 | [9] 0.005 | [10] 0.003 | [11] 0.012 | [12] -0.029 | [13] 0.093 | [14] -0.068 | [15] -0.064 | [16] 0.016 | [17] -0.007 | [18] 0.014 | [19] 0.028

CBFA2T3 (UniProt O75081)
inactive: [1] -0.02 | [2] -0.088 | [3] -0.249 | [4] 0.132 | [5] 0.138 | [6] -0.074 | [7] 0.36 | [8] 0.011 | [20] 0.027 | [9] -0.024 | [10] -0.039 | [11] 0.046 | [12] -0.059 | [13] -0.142 | [14] -0.025 | [15] -0.214 | [16] -0.125 | [17] 0.04 | [18] -0.026 | [19] 0.095

CCDC97 (UniProt Q96F63)
inactive: [1] -0.141 | [2] 0.106 | [3] -0.085 | [4] 0.172 | [5] 0.018 | [6] 0.094 | [7] 0.058 | [8] 0.082 | [20] -0.008 | [9] -0.09 | [10] -0.242 | [11] 0.114 | [12] 0.02 | [13] -0.056 | [14] 0.123 | [15] 0.087 | [16] 0.149 | [17] -0.033 | [18] -0.006 | [19] -0.061
